{"source": "patent US20050026951A1", "about": "“Methods of therapeutic treatment using retinoids with reduced drug interaction” (Allergan, Inc., priority 2003, published 2005)", "experiment": "Effect of body weight on plasma tazarotenic acid Cmax and AUC after oral tazarotene", "format": "in vivo, human", "conditions": "single daily dose of 6 mg tazarotene, healthy volunteers of differing body weights, p>0.05", "note": "At least one read-out could not be matched to a standard name with certainty."}
{"compound": "CC1(C)CCSc2ccc(C#Cc3ccc(C(=O)O)cn3)cc21", "note": "[tazarotenic acid]", "values": [{"measurement": "Effect of body weight on systemic tazarotenic acid exposure (plasma Cmax and AUC)", "value": "no effect of body weight"}]}
